Measured values from the odorant receptor screen of Mainland et al. (2015).
Several values for one entry are separate records, joined by “and”; a condition that tells them apart may be missing. Equal entries are not always repeated. The list shows a part of the results. Each value is one well over the wells without odorant, computed here; the data are noisy.

Key:
Assay in all cases: odorant receptor activation (CRE luciferase / Renilla) (fold of no-odor wells); higher = more activation
Conditions in all cases: 100 µM
OR51A2 clone 1577 = tested on: OR51A2 clone 1577
[1] = tested on: OR51A4 G45C/L227P/R267G clone 1166
OR51B2 clone 1551 = tested on: OR51B2 clone 1551
[2] = tested on: OR51B4 V36I/M147T clone 1552
OR51B5 clone 1553 = tested on: OR51B5 clone 1553
OR51B6 clone 1554 = tested on: OR51B6 clone 1554
OR51D1 clone 1206 = tested on: OR51D1 clone 1206
OR51E1 S11N clone 1532 = tested on: OR51E1 S11N clone 1532
OR51E1 clone 1129 = tested on: OR51E1 clone 1129
OR51E2 clone 1205 = tested on: OR51E2 clone 1205

SMILES | odorant receptor activation (OR51A2 clone 1577) | odorant receptor activation [1] | odorant receptor activation (OR51B2 clone 1551) | odorant receptor activation [2] | odorant receptor activation (OR51B5 clone 1553) | odorant receptor activation (OR51B6 clone 1554) | odorant receptor activation (OR51D1 clone 1206) | odorant receptor activation (OR51E1 S11N clone 1532) | odorant receptor activation (OR51E1 clone 1129) | odorant receptor activation (OR51E2 clone 1205)
CCOc1cc(C=O)ccc1O [ethyl vanillin] | 0.856 | 1.2 and 0.978 | 0.955 | 0.938 | 0.853 | 1.62 | 1.33 | 1.11 and 2.04 and 1.14 | 1.7 and 1.22 | 1.32 and 1.12
CS [methanethiol] | 0.627 | 1.01 | 0.809 | 0.613 | 0.67 | 0.923 | 0.819 | 0.91 | 1.1 | 1
CCC(C)=O [2-butanone] | 0.737 | 1.08 | 0.777 | 0.679 | 0.8 | 0.826 | 1.2 | 0.977 | 1.28 | 0.633
CCCCOC(C)=O [butyl acetate] | 0.536 | 1.06 | 1.1 | 1.67 | 0.505 | 0.758 | 1.01 | 0.972 | 1.11 | 1.16
